From article PMC10151459 come the findings set out here.

For experiment [1], the target named is T1, LTI6b (LOW TEMPERATURE INDUCED PROTEIN 6b)-mCherry (UniProt Q9ZNS6).
T1 sequence: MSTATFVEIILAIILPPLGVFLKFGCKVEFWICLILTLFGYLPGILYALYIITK
In words: co-IP; mCherry-tagged proteins immunoprecipitated from protein extracts of N. benthamiana leaves transiently coexpressing PDLP5-eGFP; blots with anti-GFP and anti-RFP.

Experiment [2] deals with T2, NHL3-mCherry (NDR1/HIN1-LIKE protein 3 tagged with mCherry) (Arabidopsis thaliana) (UniProt Q9FNH6).
T2 sequence: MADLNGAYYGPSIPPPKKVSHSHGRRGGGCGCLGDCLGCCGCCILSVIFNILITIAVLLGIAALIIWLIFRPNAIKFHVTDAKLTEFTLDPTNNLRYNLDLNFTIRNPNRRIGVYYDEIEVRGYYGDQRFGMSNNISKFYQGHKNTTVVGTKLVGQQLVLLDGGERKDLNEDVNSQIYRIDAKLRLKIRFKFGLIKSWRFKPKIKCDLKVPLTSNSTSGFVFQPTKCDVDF
The description is as above.

For experiment [3], the target named is T1, LTI6b (LOW TEMPERATURE INDUCED PROTEIN 6b)-mCherry. In words: FRET or BRET; FRET-FLIM in N. benthamiana leaves transiently expressing the constructs; donor PDLP5-eGFP, acceptors mCherry fusions; GFP lifetime measured at plasmodesmal regions of interest. Background: BRET reads energy transfer from a luciferase to a nearby fluorophore.
Experiment [4] addresses T2, NHL3-mCherry (NDR1/HIN1-LIKE protein 3 tagged with mCherry) (Arabidopsis thaliana). The experiment is described as above.

Results are given in words; binding and its absence hold for the method and conditions named. In cells and extracts the contact can be indirect. Some entries that bind do so weakly or less than the wild type. Where a sequence is shown, tags or fusion partners need not be part of it.

B1: PDLP5-eGFP (PLASMODESMATA-LOCATED PROTEIN 5 fused to eGFP) (protein, UniProt Q8GUJ2 26-299)
chain: SPTDNYIYAVCSPAKFSPSSGYETNLNSLLSSFVTSTAQTRYANFTVPTGKPEPTVTVYGIYQCRGDLDPTACSTCVSSAVAQVGALCSNSYSGFLQMENCLIRYDNKSFLGVQDKTLILNKCGQPMEFNDQDALTKASDVIGSLGTGDGSYRTGGNGNVQGVAQCSGDLSTSQCQDCLSDAIGRLKSDCGMAQGGYVYLSKCYARFSVGGSHARQTPGPNFGHEGEKGNKDDNGVGKTLAIIIGIVTLIILLVVFLAFVGKCCRKLQDEKWCK
As for B1, the binding result in experiment [1] is reported as “no binding”; in experiment [2], “binds”; in experiment [3], “no binding”; in experiment [4], “binds”.
